Source: PubChem BioAssay AID540276 (National Center for Advancing Translational Sciences (NCATS), 2011)
Screen size: about 300,000 compounds; about 5,400 (1.8%) were called active. This list was built around the results that the source calls inconclusive (neither active nor inactive); the mix of calls is not that of the screen. Calls follow the shape of the full dose curve; tested in HEK293 cells. Potencies beside an inconclusive call are fits to weak or partial responses and may not hold up.

Experiment: qHTS for inhibitors of binding or entry into cells for Marburg Virus
Conditions: Marburg virus pseudotyped entry inhibition, cell reporter; activity change, negative = inhibition: at 37.8 µM (top of the series) unless noted
% is scaled to controls: 0 for no effect and ±100 for the full control effect; potency is read from the fitted curve at half-maximal effect.

Structure (SMILES) | Potency | activity change, negative = inhibition
O=C(NCCC1CCCCN1S(=O)(=O)c1cccs1)C(=O)Nc1ccc(F)cc1 (centres undefined) | inconclusive: 7.94 µM [inhibitor, partial curve, poor fit] | –
COc1ccc(C(NC(=O)C2CCCCC2)c2c(O)ccc3ccccc23)cc1 (centres undefined) | inconclusive: 31.6 µM [inhibitor, single point] | –
O=C1c2ccccc2C(=O)c2[nH]c(=O)[nH]c21 | inconclusive: 10 µM [inhibitor, partial curve, poor fit] | –
Cc1ccc(NC(=O)OCc2cc(-c3ccccc3)on2)cc1 | inconclusive: 3.16 µM [activator, single point] | –
CN(C)C1C(=O)C(C(N)=O)=C(O)[C@@]2(O)C(=O)C3=C(O)c4c(O)ccc(Cl)c4[C@@H](O)C3C[C@@H]12 (some centres undefined) | inconclusive: 2.51 µM [inhibitor, full curve] | –
Cc1ccc(S(=O)(=O)N(C)C2(C)CCS(=O)(=O)C2)cc1 (centres undefined) | – | inactive: -16.6%
CCOC(=O)CC(=O)CSc1nc(C)cc(C)c1C#N | – | inactive: 0.299% [at 46.1 µM]
Cc1cccc(/C=N/NC(=O)c2cc3c(s2)-c2ccccc2CC3)c1 | inconclusive: 10 µM [inhibitor, partial curve, poor fit] | –
COc1ccc(CC(=O)NNC(=O)c2cccs2)cc1 | – | inactive: 7.81%
CC(/C=N/NC(=O)Cc1cccn1C)=C\c1ccccc1 | inconclusive: 2.82 µM [activator, single point] | –
Nc1nnc(SCCCC(=O)c2ccccc2)s1 | – | inactive: 2.37%
Cc1ccc(S(=O)(=O)n2ccc3c(OCCOCCNCc4ccc(F)cc4)cccc32)cc1 | inconclusive: 22.4 µM [inhibitor, single point] | –
O=C(Nc1ccccc1)N1CCC(C(=O)N2CCN(c3ccccc3F)CC2)CC1 | inconclusive: 11.2 µM [activator, partial curve, poor fit] | –
Cc1oc(-c2ccccc2F)nc1Cn1c(SCc2ccccc2F)nc2ccncc21 | – | inactive: -10.5% [at 46.1 µM]
Oc1ccc(C=Nc2ccc(N3CCOCC3)cc2)c(O)c1 | inconclusive: 0.112 µM [inhibitor, full curve, poor fit] | –
CC1(C)CN=C(N(Cc2ccccc2)C(=O)Nc2ccccc2)S1 | inconclusive: 2.59 µM [activator, full curve, poor fit] | –
O=C(Nc1nccs1)c1cn(-c2ccccc2)nc1-c1ccccc1 | inconclusive: 35.5 µM [inhibitor, single point] | –
CC12CCC3(CO)COC(c4ccccc4O1)C2C3 (centres undefined) | inconclusive: 3.66 µM [inhibitor, single point] | –
Cc1cc(C(=O)Nc2ccc3[nH]ccc3c2)no1 | – | inactive: 0.727%
Cc1ccc(OCC(O)CN2CCN(Cc3ccc4c(c3)OCO4)CC2)cc1C (centres undefined) | inconclusive: 20 µM [inhibitor, single point] | –
CCc1ccc(-c2cc(C(=O)NN3CCN(C)CC3)c3ccccc3n2)cc1 | inconclusive: 11.2 µM [inhibitor, single point] | –
Cc1nc2ccc(C(C(F)(F)F)(C(F)(F)F)C(F)(F)F)cc2[nH]1 | – | inactive: -18.6%
COc1ccc(/C=C/c2nnc(NC(C)=O)s2)cc1 | inconclusive: 12.6 µM [inhibitor, single point] | –

Structure (SMILES) | Potency | activity change, negative = inhibition
CC1(C)CC(=O)c2cc(C(=O)Nc3ccc(Br)cc3)c(=O)n(-c3ccc(Cl)cc3)c2C1 | inconclusive: 5.01 µM [activator, partial curve] | –
COc1ccc(S(=O)(=O)N(CC(=O)NC2CC2)c2ccc(C)cc2)cc1 | inconclusive: 31.6 µM [activator, single point] | –
COc1ccc(-n2nnnc2SCC(=O)c2ccc3c(c2)OCCO3)cc1 | – | inactive: 14.2%
Nc1c(C(=O)Nc2ccc(F)c(Cl)c2)sc2nc3c(cc12)N1CCC3CC1 | inconclusive: 35.5 µM [inhibitor, single point] | –
COc1ccc(C2=NOC(C(=O)NCc3cccs3)C2)cc1OC (centres undefined) | inconclusive: 0.164 µM [inhibitor, full curve] | –
Cc1cc(N/N=C/c2c[nH]c3ccccc23)c2ccccc2n1 | inconclusive: 35.5 µM [activator, single point] | –
Cc1ccc2nc(NC(=O)c3cc(-c4ccco4)nc4ccccc34)sc2c1 | – | inactive: -24.8%
COCCCn1c(=N)c(S(=O)(=O)c2ccccc2)cc2c(=O)n3cccc(C)c3nc21 | – | inactive: 2.96% [at 46.1 µM]
O=C(Nc1ccc(OC(=O)c2cccnc2)cc1)c1cccnc1 | inconclusive: 3.66 µM [inhibitor, partial curve, poor fit] | –
Cn1ncc2c(O/N=C(\N)c3ccc(C(C)(C)C)cc3)ncnc21 | inconclusive: 7.94 µM [inhibitor, partial curve, poor fit] | –
O=C(N/N=C/c1ccccn1)c1cc(C2CC2)nc2ccccc12 | inconclusive: 35.5 µM [inhibitor, single point] | –
O=C(O)c1cc(N/N=C/c2ccc3c(c2)OCO3)ccc1Cl | active: 2.51 µM | –
CC(C)C(=O)NC(=S)Nc1ccccc1F | inconclusive: 10 µM [activator, single point] | –
COc1ccc(Cl)cc1NC(=O)c1c(C(=O)Nc2cccc(C)c2C)sc2nc(C)cc(=O)n12 | inconclusive: 3.16 µM [activator, single point] | –
Cc1ccc(NC(=O)c2nnn(CC(=O)Nc3ccccc3)c2N)cc1C | active: 11.2 µM | –
CC(=O)Nc1ccc(NS(=O)(=O)c2ccc(-c3cnc(C4CC4)o3)cc2)cc1 | inconclusive: 8.91 µM [inhibitor, partial curve] | –
CCOC(=O)c1cc(-c2ccc(C)cc2)n(CC(=O)Nc2cccc(C(C)=O)c2)c1C | inconclusive: 31.6 µM [activator, single point] | –
CCOC(=O)CSc1nnc(CCCCCN2C(=O)c3cccc4cccc(c34)C2=O)o1 | – | inactive: -15.2%
Cc1ccc(NC(=O)C(OC(=O)c2ccc(NC(N)=O)cc2)c2ccccc2)cc1Cl (centres undefined) | inconclusive: 5.62 µM [activator, single point] | –
Cc1cccc(N2CCN(C(=O)c3ccccc3NC(=O)C3CC=CCC3C(=O)O)CC2)c1 (centres undefined) | inconclusive: 11.2 µM [inhibitor, partial curve, poor fit] | –
Cc1ccc(C(=O)c2cn(Cc3ccc(F)cc3)c3nc(C)ccc3c2=O)cc1 | inconclusive: 5.62 µM [activator, full curve, poor fit] | –
Cc1nn(Cc2ccccc2)c(C)c1NC(=O)c1cc(C(C)C)on1 | – | inactive: -2.25% [at 46.1 µM]
CC(C)c1nnc(NC(=O)Cn2nc(-c3ccc4c(c3)OCCO4)ccc2=O)s1 | – | inactive: 4.62%

Structure (SMILES) | Potency | activity change, negative = inhibition
O=C(Nc1ccccc1N1CCCCC1)c1cc(S(=O)(=O)N2CCOCC2)ccc1F | inconclusive: 20 µM [inhibitor, single point] | –
CC1=[N+](C)c2c(ccc3cccnc23)C1(C)C | inconclusive: 35.5 µM [inhibitor, partial curve, poor fit] | –
c1ccc(CSc2nnc(-c3ccco3)n2Cc2ccco2)cc1 | inconclusive: 29.1 µM [activator, single point] | –
Clc1ccc2[nH]cc(-c3nnnn3-c3ccc4ccccc4c3)c2c1 | inconclusive: 29.1 µM [inhibitor, single point] | –
CCN1CCN(S(=O)(=O)c2ccc(Cl)c(C(=O)NCCc3ccccc3)c2)CC1 | inconclusive: 31.6 µM [activator, single point] | –
CCOC(=O)CSc1nnc(NC(=O)c2ccc3c(c2)OCO3)s1 | inconclusive: 1.26 µM [inhibitor, single point] | –
CCOC(=O)N[C@@]1(C(F)(F)F)C(=O)NC(C)=C1C#N | – | inactive: 0.87%
CCCCSCc1nc2ccccn2c1Br | – | inactive: 5.03% [at 46.1 µM]
CCC1(CC(C)C)SC(N)=NC1=O (centres undefined) | – | inactive: 0.978%
CCc1nc(C)cn1S(=O)(=O)c1cc(Br)c(C)cc1OC | inconclusive: 35.5 µM [inhibitor, single point] | –
CCOc1ccc(NS(=O)(=O)c2ccc(C(=O)NNC(=O)c3ccccc3O)cc2)cc1 | inconclusive: 7.94 µM [inhibitor, partial curve, poor fit] | –
COc1ccc(Oc2cc(NC(=O)c3nn(C)cc3[N+](=O)[O-])cc([N+](=O)[O-])c2)cc1 | – | inactive: -50.8%
CCCCNCCOCCOc1ccc(Cl)cc1Br | inconclusive: 10 µM [inhibitor, partial curve, poor fit] | –
COc1ccc(-c2nc3ccccc3o2)cc1NC(=O)c1ccc(N2CCC(C)CC2)c([N+](=O)[O-])c1 | inconclusive: 0.891 µM [activator, full curve, poor fit] | –
O=C(CN1CCCN(S(=O)(=O)c2ccc(F)cc2)CC1)Nc1ccccc1Br | – | inactive: -17.2%
COCCNC(=O)CC(=O)N/N=C/c1cccc(C(=O)OC)c1 | inconclusive: 11.2 µM [activator, single point] | –
O=C(CN1C(=O)S/C(=C/c2cccnc2)C1=O)N1CCOCC1 | inconclusive: 1 µM [inhibitor, partial curve, poor fit] | –
Cc1ccc(-c2nc(-c3ccccn3)no2)cc1Cl | inconclusive: 1.26 µM [inhibitor, full curve, poor fit] | –
N#C/C(=C\c1ccc(-c2ccccc2[N+](=O)[O-])o1)C(=O)Nc1nc(-c2cccs2)cs1 | inconclusive: 2.82 µM [activator, single point] | –
CCCC(=O)Nc1ccc(Br)cn1 | – | inactive: 2.76%
CCOC(=O)c1c(C)nc(C)c2c(=O)oc3ccccc3c12 | – | inactive: 0.728% [at 46.1 µM]
Nc1nnc(CSCc2cccc(Br)c2)s1 | inconclusive: 17.8 µM [activator, single point] | –
Cc1ccnc(NS(=O)(=O)c2ccc(NC(=O)c3cc(=O)c4ccc(C)c(C)c4o3)cc2)n1 | – | inactive: -5.01% [at 46.1 µM]

Already shown: 3 of the compounds above.
Structure (SMILES) | Potency | activity change, negative = inhibition
O=C(CN1C(=O)S/C(=C/c2cccnc2)C1=O)N1CCOCC1 | inconclusive: 1 µM [inhibitor, partial curve, poor fit] | –
Cc1ccc(-c2nc(-c3ccccn3)no2)cc1Cl | inconclusive: 1.26 µM [inhibitor, full curve, poor fit] | –
N#C/C(=C\c1ccc(-c2ccccc2[N+](=O)[O-])o1)C(=O)Nc1nc(-c2cccs2)cs1 | inconclusive: 2.82 µM [activator, single point] | –
